# Reference: the supplement of paper PMC3334620
# Over roughly 33,000 sequences, “E-score (-0.5 to 0.5)” has its median near -0.0034; the highest 2% begin near 0.25. The list shows a part of the results.
# Molecular target: T1, Yap3 (UniProt P38749)
# T1 sequence: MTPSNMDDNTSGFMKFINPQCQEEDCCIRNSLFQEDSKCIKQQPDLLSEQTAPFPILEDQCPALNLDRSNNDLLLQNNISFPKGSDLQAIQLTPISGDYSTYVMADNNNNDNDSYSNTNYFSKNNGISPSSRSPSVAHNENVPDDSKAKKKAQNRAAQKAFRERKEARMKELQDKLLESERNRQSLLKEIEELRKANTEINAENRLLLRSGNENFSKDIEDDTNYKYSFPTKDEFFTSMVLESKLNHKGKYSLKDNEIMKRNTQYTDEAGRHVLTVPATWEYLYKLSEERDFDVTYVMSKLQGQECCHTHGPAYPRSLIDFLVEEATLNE
# Test: PBM E-score (8-mer binding enrichment) (E-score (-0.5 to 0.5)); higher = stronger / more preferred TF binding
# Conditions: protein concentration: 100 nM; construct: GST-full length
# Outline: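 Using PURExpress in vitro transcription/translation, GST-tagged yeast transcription factors were made in full-length or DNA-binding-domain form. These were applied at about 100-200 nM to double-stranded universal all-10-mer Agilent arrays, and bound protein was detected with fluorescent anti-GST. Scans were normalised with masliner before the Universal PBM Analysis Suite assigned E-scores to ungapped eight-base words pooled with their reverse complements.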
row,Sequence,PBM E-score
1,GACTGACA,0.105
2,AAATCCGT,0.132
3,GACTCTCC,-0.239
4,CAAAGAAA,0.129
5,TTCCGGAA,-0.0427
6,CTACCGGC,-0.147
7,ACCTTGCG,0.128
8,AAGCTACT,0.0267
9,AGAGTCCA,-0.0323
10,ATTCGGTG,0.09
11,GGGAGTCA,-0.198
12,ATTATCGG,-0.0264
13,ACCCCGGG,-0.238
14,CGTGCTCC,-0.117
15,GCTCCATA,-0.0182
16,ATAACCAT,0.0623
17,CTGCAAGA,0.0368
18,ACCCCATG,-0.0576
19,GACAGAAC,0.0937
20,AGCGCTAT,0.0919
21,AAGACCGA,0.00128
22,CAGGTTTC,0.0712
23,AGAACTCG,-0.00218
24,CCGGGTTA,-0.234
25,CGTTCTGA,-0.106

row,Sequence,PBM E-score
1,GCAGTTCA,-0.0245
2,CGTTACTA,0.149
3,CTCTCACA,0.109
4,CCGGAGGC,-0.307
5,AGTCACGA,-0.176
6,ATTCCTAC,0.158
7,AAGTCAAT,0.115
8,ATTATCCG,0.166
9,GTGTGCCA,-0.0465
10,AAGCGCTC,-0.0695
11,CTGTGAGA,-0.0851
12,AGAGCAAC,-0.177
13,GATGACGC,0.0228
14,AGTATTTG,0.0477
15,CGGCAATC,-0.104
16,CGCATGGC,-0.0735
17,GAAAGACA,0.217
18,GGTCGGGA,-0.135
19,ACATACCA,-0.119
20,CTCATTCC,0.139
21,AACGTTAT,0.164
22,ATTGCGGG,0.0122
23,ACGTAACT,0.169
24,CCGGATCG,-0.121
25,GTCTAGAC,-0.104

row,Sequence,PBM E-score
1,TAATTGCA,0.195
2,ATACCGCC,-0.0222
3,ATCTGGCC,-0.0483
4,GTCTTGTA,-0.0728
5,TAATGGTA,-0.0483
6,CCTCCCAC,-0.157
7,AAATTGTA,0.182
8,TAGTAACA,0.184
9,CGCTATTC,0.174
10,AATGCCTC,0.00318
11,CAGCCGTC,-0.126
12,ATTGTATG,0.151
13,ACGAGTTA,0.104
14,CCCCAAGA,-0.106
15,GCAGCTTA,0.0331
16,CATTTTAC,0.332
17,ATTCATTC,0.222
18,AGGCCCCT,-0.411
19,CACGGACA,-0.141
20,TACTGCGA,-0.0426
21,GACATATA,0.195
22,TCAAACGA,-0.165
23,AAGCGTAA,-0.0172
24,CTCCATGA,-0.069
25,GAGACTTA,-0.13

row,Sequence,PBM E-score
1,AGCCATAA,0.0277
2,AGACATCC,-0.152
3,AGGTTCTC,-0.146
4,CTTCGGCA,-0.166
5,AGATTACC,0.155
6,ACCAAATC,0.0358
7,CTTATGCA,0.0746
8,GTAAGTAC,0.14
9,AGCACGAA,0.212
10,CCACCCAC,-0.128
11,AGTGAGGC,-0.105
12,GCCTGCTA,-0.119
13,GAGTAGAA,0.117
14,GAAGACCA,-0.105
15,ATAAGAGC,0.0623
16,CGGAAGGC,-0.277
17,ACGCGGCC,-0.0675
18,AACACTGG,0.0398
19,CGATGGAA,-0.079
20,ACTCTTCC,-0.108
21,ACAGCCAG,0.00109
22,ATTCATCA,0.117
23,CAGCCCGA,-0.216
24,ACGCAGCG,-0.173
25,AGGTAGTA,0.0606

# Single entries from the entries so far:
# Value of ACGCGGCC under PBM E-score: -0.0675
# Value of AGGTTCTC under PBM E-score: -0.146
# Value of GTAAGTAC under PBM E-score: 0.14
# Value of ACAGCCAG under PBM E-score: 0.00109
# Value of GAAGACCA under PBM E-score: -0.105
# Value of AGACATCC under PBM E-score: -0.152
# Value of AGCACGAA under PBM E-score: 0.212

# The list continues:

row,Sequence,PBM E-score
1,GAGCAGCC,-0.2
2,GTATGTCA,0.243
3,TCTAAACA,-0.0582
4,GCGCACCA,-0.0312
5,CCTGCTAA,-0.12
6,AGCCGTAA,0.066
7,ACAAGATC,-0.145
8,AAGAGGAT,-0.0744
9,AAAATTGT,0.244
10,CTATGCAG,-0.0654
11,CTTACGAA,0.259
12,AGGAACAC,0.0765
13,AGTCATTC,0.0132
14,ATGCGACG,-0.0983
15,TACTCGGA,0.0884
16,CACCTAGA,-0.182
17,AACCTACA,0.124
18,TACTGGCA,-0.173
19,GAGGGCAA,0.0305
20,CCCGGGAG,-0.312
21,GGACGTCC,0.0464
22,CCCCAACC,-0.197
23,CTACATCC,0.0357
24,CATAAGTC,0.112
25,CAGTACAC,0.00873

row,Sequence,PBM E-score
1,AATAGTGC,0.0377
2,AGGGGGTC,-0.414
3,ATGGCCTA,-0.06
4,ATTAACGG,0.14
5,GTTGAGAA,-0.0265
6,TCCCTGCA,-0.0631
7,GACGTGCC,-0.337
8,GTGTCAGA,0.0215
9,GTACTGCA,-0.0543
10,ACTGCTCT,0.0428
11,GACCAATC,0.165
12,ACTAAGAG,0.0259
13,AGTAATAA,0.254
14,AGCGGTGA,-0.129
15,CGCATGCA,0.124
16,AGGCCGTA,-0.00589
17,AGAAAGAC,0.0627
18,GAAATGCC,0.0869
19,GATTTCGA,0.12
20,CAGAACAG,0.105
21,AGTCTAGG,-0.166
22,CAGGGTTC,-0.119
23,CATTGGGG,-0.0497
24,AAAGCGAA,0.0836
25,ATCCATTC,0.149

row,Sequence,PBM E-score
1,AGTGTTGA,-0.00013
2,AAGTGATG,0.133
3,AGGGGCAA,0.0575
4,AATTGCAC,0.156
5,AGTTCCAA,0.00636
6,TATTTAAA,0.225
7,GTAAGACA,0.108
8,AATACCCA,0.0353
9,AAACAAGG,-0.00676
10,GGGACCGA,-0.124
11,GGTATTAC,0.254
12,CGTACTGC,0.0305
13,AAGTTGAG,0.104
14,GGATTCGA,-0.117
15,AAGACTGT,-0.0596
16,ACTTCTCG,0.159
17,AACTCGTC,0.0786
18,ACGAAACC,0.0818
19,CAGGTCGA,0.0474
20,AATTCGAG,0.022
21,GCACCGAA,0.113
22,CACTCAGC,-0.0393
